# Results taken from PubChem BioAssay AID248 (DTP/NCI, 2004).
# The list does not hold the whole screen: it is rich in T/C values a quarter to a half above the control, in often repeated tests (any T/C) and in doses without a T/C. Other doses and runs of a compound stand elsewhere. T/C gives the treated animals as a percentage of the vehicle group. Some entries give survivors of the animals treated and no T/C: the source holds a T/C of zero for them, seemingly a mark for toxic or unscored doses. Some doses without a T/C left all or most animals alive at the check, yet need not have been tolerated: the source hardly ever lists a survival T/C far under the control, and the zero likely stands for such cases as well. Survivors were counted at the toxicity check, usually on the fifth day, unless a day is given; later deaths do not show. Schedule codes are those of the source, read here as Q, the interval in days (D) or hours (H), X, the number of doses. Where survival is the endpoint, the PubChem record calls one and a half times the control and up active, and a quarter to a half above the control has no call in these data; cut-offs in other NCI protocols can differ.
# Tested on: L1210 leukemia ip in BDF1 mice, survival T/C
# Assay: NCI In Vivo Anticancer Drug Screen. Data for tumor model L1210 Leukemia (intraperitoneal) in B6D2F1 (BDF1) mice
# Details: higher T/C = longer survival
# [1] = T/C endpoint: mean survival time, dose: 400.0 mg/kg/injection, schedule: Q01DX009 (ip), vehicle: Klucel (hydroxypropylcellulose) (HPC)
# [2] = T/C endpoint: mean survival time, dose: 200.0 mg/kg/injection, schedule: Q04DX003 (ip), vehicle: saline
# [3] = T/C endpoint: mean survival time, dose: 400.0 mg/kg/injection, schedule: Q04DX003 (ip), vehicle: saline with Tween-80
# [4] = T/C endpoint: mean survival time, dose: 200.0 mg/kg/injection, schedule: Q04DX003 (ip), vehicle: saline with Tween-80
# [5] = T/C endpoint: mean survival time, dose: 300.0 mg/kg/injection, schedule: Q01DX001 (ip), vehicle: saline
# [6] = T/C endpoint: mean survival time, dose: 50.0 mg/kg/injection, schedule: Q04DX002 (ip), vehicle: Klucel (hydroxypropylcellulose) (HPC)
structure (smiles),measurement,setting,value
CC(=O)OC1(C)CC(C)C(=O)C(C(O)CC2CC(=O)NC(=O)C2)C1 (stereo unspecified),T/C,"T/C endpoint: mean survival time, dose: 0.13 mg/kg/injection, schedule: Q01DX009 (ip), vehicle: water",125 % of control
same,T/C,"T/C endpoint: mean survival time, dose: 0.25 mg/kg/injection, schedule: Q01DX009 (ip), vehicle: water",135 % of control
same,survivor count,"T/C endpoint: mean survival time, dose: 0.3 mg/kg/injection, schedule: Q01DX009 (ip), vehicle: saline with Tween-80",8 of 10
same,T/C,"T/C endpoint: mean survival time, dose: 0.4 mg/kg/injection, schedule: Q01DX009 (ip), vehicle: saline with Tween-80",129 % of control
same,survivor count,"T/C endpoint: mean survival time, dose: 0.6 mg/kg/injection, schedule: Q01DX009 (ip), vehicle: saline with Tween-80",5 of 10
same,T/C,"T/C endpoint: mean survival time, dose: 0.6 mg/kg/injection, schedule: Q01DX009 (ip), vehicle: saline",131 % of control
same,survivor count,"T/C endpoint: mean survival time, dose: 1.0 mg/kg/injection, schedule: Q01DX009 (ip), vehicle: saline",5 of 6
same,survivor count,"T/C endpoint: mean survival time, dose: 1.2 mg/kg/injection, schedule: Q01DX009 (ip), vehicle: saline with Tween-80",0 of 10
same,survivor count,"T/C endpoint: mean survival time, dose: 2.0 mg/kg/injection, schedule: Q01DX009 (ip), vehicle: water",1 of 6
same,survivor count,"T/C endpoint: mean survival time, dose: 8.0 mg/kg/injection, schedule: Q04DX003 (ip), vehicle: saline",5 of 10
same,survivor count,"T/C endpoint: mean survival time, dose: 8.0 mg/kg/injection, schedule: Q04DX003 (ip), vehicle: water",2 of 6
same,survivor count,"T/C endpoint: mean survival time, dose: 16.0 mg/kg/injection, schedule: Q01DX001 (ip), vehicle: saline",4 of 10
same,survivor count,"T/C endpoint: mean survival time, dose: 16.0 mg/kg/injection, schedule: Q08DX002 (ip), vehicle: saline",6 of 10
same,survivor count,"T/C endpoint: mean survival time, dose: 125.0 micrograms/kg/injection, schedule: Q03HX024 (ip), vehicle: saline",9 of 10
same,survivor count,"T/C endpoint: mean survival time, dose: 250.0 micrograms/kg/injection, schedule: Q03HX016 (ip), vehicle: saline",6 of 10
same,survivor count,"T/C endpoint: mean survival time, dose: 250.0 micrograms/kg/injection, schedule: Q03HX024 (ip), vehicle: saline",10 of 10
same,survivor count,"T/C endpoint: mean survival time, dose: 500.0 micrograms/kg/injection, schedule: Q01DX009 (ip), vehicle: saline",8 of 10
same,survivor count,"T/C endpoint: mean survival time, dose: 500.0 micrograms/kg/injection, schedule: Q03HX008 (ip), vehicle: saline",0 of 10
same,survivor count,"T/C endpoint: mean survival time, dose: 500.0 micrograms/kg/injection, schedule: Q03HX016 (ip), vehicle: saline",2 of 10
same,survivor count,"T/C endpoint: mean survival time, dose: 500.0 micrograms/kg/injection, schedule: Q03HX024 (ip), vehicle: saline",0 of 10
same,survivor count,"T/C endpoint: mean survival time, dose: 1000.0 micrograms/kg/injection, schedule: Q01DX009 (ip), vehicle: saline",6 of 10
same,survivor count,"T/C endpoint: mean survival time, dose: 1000.0 micrograms/kg/injection, schedule: Q03HX008 (ip), vehicle: saline",0 of 10
same,survivor count,"T/C endpoint: mean survival time, dose: 1000.0 micrograms/kg/injection, schedule: Q03HX016 (ip), vehicle: saline",0 of 10
same,survivor count,"T/C endpoint: mean survival time, dose: 1000.0 micrograms/kg/injection, schedule: Q03HX024 (ip), vehicle: saline",0 of 10
same,survivor count,"T/C endpoint: mean survival time, dose: 2000.0 micrograms/kg/injection, schedule: Q01DX009 (ip), vehicle: saline",10 of 10
same,survivor count,"T/C endpoint: mean survival time, dose: 2000.0 micrograms/kg/injection, schedule: Q03HX008 (ip), vehicle: saline",0 of 10
same,survivor count,"T/C endpoint: mean survival time, dose: 2000.0 micrograms/kg/injection, schedule: Q03HX016 (ip), vehicle: saline",0 of 10
same,survivor count,"T/C endpoint: median survival time, dose: 16.0 mg/kg/injection, schedule: Q04DX003 (ip), vehicle: saline",5 of 8
Nn1cnc2c(=S)nc[nH]c21,T/C,"T/C endpoint: mean survival time, dose: 120.0 mg/kg/injection, schedule: Q01DX015 (ip), vehicle: other",143 % of control
same,survivor count,"T/C endpoint: mean survival time, dose: 600.0 mg/kg/injection, schedule: Q01DX001 (ip), vehicle: other",2 of 4
C1=CC2(C=C1)OC21CCC2(C=CC3(C2)OC3C2CCCCC2)CC1 (stereo unspecified),survivor count,"T/C endpoint: mean survival time, dose: 200.0 mg/kg/injection, schedule: Q01DX009 (ip), vehicle: saline with Tween-80",3 of 3
CC(=O)CC(=O)Nc1ccc2ccccc2c1,survivor count,"T/C endpoint: mean survival time, dose: 200.0 mg/kg/injection, schedule: Q01DX009 (ip), vehicle: Klucel (hydroxypropylcellulose) (HPC)",5 of 6
same,survivor count,[1],3 of 6
O=C(N/N=C/c1ccccn1)C1CCCO1 (stereo unspecified),survivor count,"T/C endpoint: mean survival time, dose: 400.0 mg/kg/injection, schedule: Q01DX009 (ip), vehicle: saline",1 of 6
CN1CC=C(/C=C/c2cccc3ccccc23)CC1,survivor count,"T/C endpoint: mean survival time, dose: 150.0 mg/kg/injection, schedule: Q01DX009 (ip), vehicle: saline",2 of 6
same,survivor count,[2],0 of 6
same,survivor count,"T/C endpoint: mean survival time, dose: 225.0 mg/kg/injection, schedule: Q01DX009 (ip), vehicle: saline",0 of 6
same,survivor count,"T/C endpoint: mean survival time, dose: 335.0 mg/kg/injection, schedule: Q01DX009 (ip), vehicle: saline",0 of 6
same,survivor count,"T/C endpoint: mean survival time, dose: 400.0 mg/kg/injection, schedule: Q04DX003 (ip), vehicle: saline",0 of 6
C/C=C1\CN2CCc3c([nH]c4ccccc34)C2CC1CC(=O)N(C)C (stereo unspecified),survivor count,[3],6 of 6
Nc1cc(Cl)c2cccnc2c1O,survivor count,[4],4 of 6
same,survivor count,[5],1 of 6
BrCC1OCC2(CO1)COC(CBr)OC2 (stereo unspecified),survivor count,"T/C endpoint: mean survival time, dose: 400.0 mg/kg/injection, schedule: Q04DX003 (ip), vehicle: Klucel (hydroxypropylcellulose) (HPC)",1 of 6
CN(C)CCN1c2ccccc2Sc2ccccc21,survivor count,[2],4 of 4
O=P1(c2ccccc2)C=C(Cl)CC1 (stereo unspecified),survivor count,[5],0 of 6
CCCCC1=Cc2cc3c(cc2C1N(C)C)OCO3 (stereo unspecified),survivor count,[6],3 of 3
[Br][Hg][CH2]COC[CH2][Hg][Br],survivor count,"T/C endpoint: mean survival time, dose: 25.0 mg/kg/injection, schedule: Q01DX009 (ip), vehicle: Klucel (hydroxypropylcellulose) (HPC)",0 of 6
same,survivor count,"T/C endpoint: mean survival time, dose: 25.0 mg/kg/injection, schedule: Q04DX002 (ip), vehicle: Klucel (hydroxypropylcellulose) (HPC)",1 of 3
same,survivor count,"T/C endpoint: mean survival time, dose: 35.0 mg/kg/injection, schedule: Q01DX009 (ip), vehicle: Klucel (hydroxypropylcellulose) (HPC)",3 of 6
same,survivor count,[6],0 of 3
same,survivor count,"T/C endpoint: mean survival time, dose: 55.0 mg/kg/injection, schedule: Q01DX009 (ip), vehicle: Klucel (hydroxypropylcellulose) (HPC)",0 of 6
same,survivor count,"T/C endpoint: mean survival time, dose: 80.0 mg/kg/injection, schedule: Q01DX009 (ip), vehicle: Klucel (hydroxypropylcellulose) (HPC)",0 of 6
same,survivor count,"T/C endpoint: mean survival time, dose: 100.0 mg/kg/injection, schedule: Q04DX002 (ip), vehicle: Klucel (hydroxypropylcellulose) (HPC)",0 of 3
same,survivor count,"T/C endpoint: mean survival time, dose: 200.0 mg/kg/injection, schedule: Q04DX002 (ip), vehicle: Klucel (hydroxypropylcellulose) (HPC)",0 of 3
same,survivor count,"T/C endpoint: mean survival time, dose: 400.0 mg/kg/injection, schedule: Q04DX002 (ip), vehicle: Klucel (hydroxypropylcellulose) (HPC)",0 of 3
Nc1cc2ncccc2c2ncccc12,survivor count,[5],1 of 6
CC1OC(=O)C(C)(Br)OC1=O (stereo unspecified),survivor count,"T/C endpoint: mean survival time, dose: 400.0 mg/kg/injection, schedule: Q01DX001 (ip), vehicle: acetone",2 of 6
O=C(OC(CCN1CCCCC1)c1ccccc1)c1ccccc1 (stereo unspecified),survivor count,[4],1 of 6
same,survivor count,[3],0 of 6
CCCCOP(=O)(N1CC1(C)C)N1CC1(C)C (stereo unspecified),survivor count,"T/C endpoint: mean survival time, dose: 100.0 mg/kg/injection, schedule: Q04DX002 (ip), vehicle: saline",1 of 3
same,survivor count,"T/C endpoint: mean survival time, dose: 200.0 mg/kg/injection, schedule: Q04DX002 (ip), vehicle: saline",0 of 3
same,survivor count,"T/C endpoint: mean survival time, dose: 400.0 mg/kg/injection, schedule: Q04DX002 (ip), vehicle: saline",0 of 3
CN(NC(=O)OCc1ccccc1)C(=O)OCc1ccccc1,survivor count,[1],1 of 6
CCN(CC)Cc1cc(O)c(CN(CC)CC)cc1O,survivor count,"T/C endpoint: mean survival time, dose: 100.0 mg/kg/injection, schedule: Q01DX001 (ip), vehicle: saline with Tween-80",1 of 3
same,survivor count,"T/C endpoint: mean survival time, dose: 200.0 mg/kg/injection, schedule: Q01DX001 (ip), vehicle: saline with Tween-80",1 of 3
same,survivor count,"T/C endpoint: mean survival time, dose: 400.0 mg/kg/injection, schedule: Q01DX001 (ip), vehicle: saline with Tween-80",0 of 3
